Data source: PubChem BioAssay AID1259405 (NCATS, 2018)
This is one part, drawn at random, of about 50,000 deposited reagents. About 4,000 of them (8%) count as active. 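Mouse siRNA library applied to hamster cells; one well for each siRNA.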 Entries without a mark were called inactive. The numbers tell different reagents against one gene apart.

Aim: 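Knock-downs that lift recombinant protein yield in hamster ovary cells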 (primary screen)
Cells: Chinese hamster CHO-K1 ovary cells with stable secreted eGFP expression
Knock-down reagent: single siRNA against mouse genes, 0.8 pmol siRNA per well (2 µl of 400 nM stock)
Duration: 3 days
Measurement: 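Per-well intracellular GFP measured by laser scanning cytometry, plus viability from ATP luminescence, each relative to plate median of non-targeting control wells, in %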
Direction: GFP, % of control: higher = more GFP per well, higher productivity; viability (ATP), % of control: higher = more viable cells (more ATP)
Call rule: 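a knock-down is called active if GFP reaches 120% or more of non-targeting control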

no.	target	reagent	GFP, % of control	viability (ATP), % of control
1	Fmnl3 (formin-like 3)	1	47.4	57.2
2	Fmnl3 (formin-like 3)	2	82.1	81.9
3	Fmnl3 (formin-like 3)	3	95.5	68.8
4	Arid5b (AT-rich interaction domain 5B)	1	117	101
5	Arid5b (AT-rich interaction domain 5B)	2	47.3	61.1
6	Arid5b (AT-rich interaction domain 5B)	3	68.1	81.9
7	Or6c69 (olfactory receptor family 6 subfamily C member 69)	1	37.3	47.2
8	Or6c69 (olfactory receptor family 6 subfamily C member 69)	2	63.6	61.3
9	Or6c69 (olfactory receptor family 6 subfamily C member 69)	3	71.3	134
10	Tango6 (transport and golgi organization 6)	1	51.7	64.8
11	Tango6 (transport and golgi organization 6)	2	66.4	82.6
12	Tango6 (transport and golgi organization 6)	3	80.2	89.6
13	Prph2 (peripherin 2)	1	95.7	103
14	Prph2 (peripherin 2)	2	74.2	45.3
15	Prph2 (peripherin 2)	3	82.2	74.8
16	Adgrg2 (adhesion G protein-coupled receptor G2)	1	116	63.4
17	Adgrg2 (adhesion G protein-coupled receptor G2)	2	94.1	82.5
18	Adgrg2 (adhesion G protein-coupled receptor G2)	3	99.1	74.7
19	Efhc2 (EF-hand domain (C-terminal) containing 2)	1	65.4	67.1
20	Efhc2 (EF-hand domain (C-terminal) containing 2)	2	41.8	49.7
21	Efhc2 (EF-hand domain (C-terminal) containing 2)	3	92.6	88.4
22	Suz12 (SUZ12 polycomb repressive complex 2 subunit)	1	90.8	88.8
23	Suz12 (SUZ12 polycomb repressive complex 2 subunit)	2	99.8	60.1
24	Suz12 (SUZ12 polycomb repressive complex 2 subunit)	3	112	120
25	Snhg16 (small nucleolar RNA host gene 16)	1	42.8	47.7
26	Snhg16 (small nucleolar RNA host gene 16)	2	52.6	101
27	Snhg16 (small nucleolar RNA host gene 16)	3	65.4	86.2
28	Klri2 (killer cell lectin-like receptor family I member 2)	1	62.1	17.2
29	Klri2 (killer cell lectin-like receptor family I member 2)	2	70.7	97.9
30	Klri2 (killer cell lectin-like receptor family I member 2)	3	59.2	90.9
31	Epha4 (Eph receptor A4)	1	79.9	85.4
32	Smoc2 (SPARC related modular calcium binding 2)	1	61.8	52.8
33	Smoc2 (SPARC related modular calcium binding 2)	2	46	53.9
34	Smoc2 (SPARC related modular calcium binding 2)	3	53.2	66.8
35	P2rx3 (purinergic receptor P2X, ligand-gated ion channel, 3)	1	79.9	64.7
36	P2rx3 (purinergic receptor P2X, ligand-gated ion channel, 3)	2	52.6	59.7
37	P2rx3 (purinergic receptor P2X, ligand-gated ion channel, 3)	3	84.8	68.9
38	Zfx (zinc finger protein X-linked)	1	71.4	84
39	Zfx (zinc finger protein X-linked)	2	85.6	75.6
40	Fam185a (family with sequence similarity 185, member A)	1	49	41.2
41	Fam185a (family with sequence similarity 185, member A)	2	65.4	86.7
42	Fam185a (family with sequence similarity 185, member A)	3	59.7	77.6
43	Pgc (progastricsin (pepsinogen C))	1	178 (active)	128
44	Pgc (progastricsin (pepsinogen C))	2	75.9	78.8
45	Pgc (progastricsin (pepsinogen C))	3	77.3	72.8
46	Rabgef1 (RAB guanine nucleotide exchange factor (GEF) 1)	1	118	111
47	Rabgef1 (RAB guanine nucleotide exchange factor (GEF) 1)	2	77.8	76.1
48	Rabgef1 (RAB guanine nucleotide exchange factor (GEF) 1)	3	39.8	33.8
49	Myl7 (myosin, light polypeptide 7, regulatory)	1	155 (active)	88
50	Myl7 (myosin, light polypeptide 7, regulatory)	2	116	93.7
51	Pkm (pyruvate kinase, muscle)	1	106	89.8
52	Klf3 (Kruppel-like transcription factor 3 (basic))	1	97.3	135
53	Klf3 (Kruppel-like transcription factor 3 (basic))	2	75.1	72.8
54	Klf3 (Kruppel-like transcription factor 3 (basic))	3	83.2	70.7
55	Gkn2 (gastrokine 2)	1	32.1	31
56	Gkn2 (gastrokine 2)	2	86.2	86.9
57	Gkn2 (gastrokine 2)	3	115	100
58	Tiprl (TIP41, TOR signalling pathway regulator-like (S. cerevisiae))	1	43.2	50
59	Tiprl (TIP41, TOR signalling pathway regulator-like (S. cerevisiae))	2	34.8	33.7
60	Tiprl (TIP41, TOR signalling pathway regulator-like (S. cerevisiae))	3	61.5	93.8
61	Sspn (sarcospan)	1	96.1	73.3
62	Sspn (sarcospan)	2	88.8	105
63	Sspn (sarcospan)	3	122 (active)	77.7
64	Rassf6 (Ras association (RalGDS/AF-6) domain family member 6)	1	80.5	67.2
65	Rassf6 (Ras association (RalGDS/AF-6) domain family member 6)	2	82.8	81.3
66	Rassf6 (Ras association (RalGDS/AF-6) domain family member 6)	3	61	49.7
67	Retreg1 (reticulophagy regulator 1)	1	78.9	59.4
68	Retreg1 (reticulophagy regulator 1)	2	57.9	48
69	Retreg1 (reticulophagy regulator 1)	3	42.7	41.4
70	Txndc9 (thioredoxin domain containing 9)	1	69.4	73.2
71	Txndc9 (thioredoxin domain containing 9)	2	29.9	28.1
72	Txndc9 (thioredoxin domain containing 9)	3	95.2	76.9
73	Or51aa5 (olfactory receptor family 51 subfamily AA member 5)	1	68	37.7
74	Or51aa5 (olfactory receptor family 51 subfamily AA member 5)	2	70.6	51.3
75	Or51aa5 (olfactory receptor family 51 subfamily AA member 5)	3	30.2	54.4
76	Zmat3 (zinc finger matrin type 3)	1	53.4	74
77	Zmat3 (zinc finger matrin type 3)	2	88.2	79.9
78	Zmat3 (zinc finger matrin type 3)	3	75.1	77.7
79	Dnase1l2 (deoxyribonuclease 1-like 2)	1	62.1	88.9
80	Dnase1l2 (deoxyribonuclease 1-like 2)	2	96.5	86.2
81	Dnase1l2 (deoxyribonuclease 1-like 2)	3	76.3	73.4
82	Bbx (bobby sox HMG box containing)	1	148 (active)	74.7
83	Bbx (bobby sox HMG box containing)	2	111	86.3
84	Bbx (bobby sox HMG box containing)	3	32.1	34.9
85	Bbx (bobby sox HMG box containing)	4	89	86.2
86	Bbx (bobby sox HMG box containing)	5	122 (active)	68.3
87	Bbx (bobby sox HMG box containing)	6	78.1	56.4

9 entries from above, reformatted.
target | reagent | GFP, % of control | viability (ATP), % of control
Sspn (sarcospan) | 1 | 96.1 | 73.3
Sspn (sarcospan) | 2 | 88.8 | 105
Sspn (sarcospan) | 3 | 122 (active) | 77.7
Rassf6 (Ras association (RalGDS/AF-6) domain family member 6) | 1 | 80.5 | 67.2
Rassf6 (Ras association (RalGDS/AF-6) domain family member 6) | 2 | 82.8 | 81.3
Rassf6 (Ras association (RalGDS/AF-6) domain family member 6) | 3 | 61 | 49.7
Retreg1 (reticulophagy regulator 1) | 1 | 78.9 | 59.4
Retreg1 (reticulophagy regulator 1) | 2 | 57.9 | 48
Retreg1 (reticulophagy regulator 1) | 3 | 42.7 | 41.4
